In patent publication US20160318891A1, “TONABERSAT PRODRUGS” (PROXIMAGEN LIMITED, priority 2013, published 2016):
Some of these results come from one statement about several compounds together.

Test: Pharmacokinetics: tonabersat plasma exposure after dosing prodrug to rats
Set-up: species or system Sprague Dawley rats

COP(=O)(O)OCO[C@H]1[C@@H](NC(=O)c2ccc(F)c(Cl)c2)c2cc(C(C)=O)ccc2OC1(C)C [Example 15, ({[(3S,4S)-6-Acetyl-4-[(3-chloro-4-fluorobenzene)amido]-2,2-dimethyl-3,4-dihydro-2H-1-benzopyran-3-yl]oxy}methoxy)(methoxy)phosphinic acid]
hydrolysis in vivo to parent drug: hydrolyse in vivo to generate tonabersat
